Results published in PubChem BioAssay AID2685 (National Center for Advancing Translational Sciences (NCATS), 2010).
Some of the results follow. These are further read-outs of the screen, such as a control signal, another cell line or another target. No call is given for them. The list favours compounds with an active or inconclusive main result. The note in brackets gives the kind of curve behind each potency; many fits are weak.

Assay: qHTS Assay for Lipid Storage Modulators in Drosophila S3 Cells;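 on cell number change: cells counted by Cell Tracker Red CMTPX staining in the red channel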
Conditions: BODIPY lipid droplet fluorescence, 18-24 h; for cell number change: measured here: cell count max response, cells fed with added oleic acid
Procedure, shortened: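 Drosophila S3 cells got compounds at several concentrations plus oleic acid (400 uM solution). Laser-scanning cytometry with 488 nm excitation read lipid droplets at 500-530 nm and cells at 575-640 nm. Percent activity was relative to 20 uM Triacsin C.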

[1] = measured here: cell number channel AC50, cells fed with added oleic acid
[2] = measured here: lipid fluorescence (Fed channel) AC50, cells fed with added oleic acid

SMILES	cell number change [%]	AC50 [1]	AC50 [2]
COCCn1c(=O)[nH]c2cc(C(=O)NCc3ccccc3)ccc2c1=O	0.772	6.51 µM [falling, single point]	6.51 µM [falling, single point]
Cc1cccc(NC(=O)CSc2nnc([C@@H]3CCCN3C(=O)OC(C)(C)C)o2)c1C	1.14		1.46 µM [rising, partial curve, poor fit]
O=C(COc1ccc(S(=O)(=O)N2CCCC2)cc1)N1CCN(c2ccccc2F)CC1			29.1 µM [falling, single point]
Cc1cccc(-c2nnc3sc(-c4ccccc4)nn23)c1	-3.42		
COc1cc(NC(=O)c2ccco2)ccc1NC(=O)c1ccccc1Cl	7.28		
COc1ccc(N(Cc2cc(=O)[nH]c3ccccc23)C(=O)c2ccco2)cc1	44.4	20.6 µM [rising, single point]	
CN1CCN(C(=O)c2cc3nc(-c4ccccc4)cc(C(F)(F)F)n3n2)CC1		0.461 µM [falling, partial curve, poor fit]	
N#Cc1c(-c2ccccc2)oc(=O)c2ccccc12	11.7		
COc1ccc2cc(C(=O)N3CCC(Cc4ccccc4)CC3)[nH]c2c1		0.82 µM [rising, full curve, poor fit]	6.51 µM [rising, single point]
CC(C)OCCCNC(=O)c1cc(-c2cccnc2)nc2ccccc12	-7.8	2.91 µM [rising, single point]	6.51 µM [rising, single point]
COc1ccc(NC(=O)CN2C(=O)NC(C)(c3ccccc3)C2=O)cc1Cl (stereo unspecified)	-5.41		0.164 µM [rising, full curve]
COc1cccc(/C=N/Nc2snc(SC)c2C#N)c1	-19		
CCOc1cc(CNc2ccc(N3CCCCC3)cc2)cc(Br)c1OCC(=O)NC(C)(C)C	-20.6		6.51 µM [rising, single point]
Cc1onc(-c2ccccc2)c1C(=O)Nc1ncc([N+](=O)[O-])s1	-24.4		0.0731 µM [rising, partial curve, poor fit]
COc1ccc(OC)c(C(c2nnnn2C2CCCC2)N2CCN(c3ccccc3)CC2)c1 (stereo unspecified)	18.9		4.11 µM [rising, full curve]
Cc1oc(-c2ccc(Cl)cc2)nc1CS(=O)CC(=O)NCc1cccs1 (stereo unspecified)	-9.76		6.51 µM [rising, single point]
Cc1cnc(C(=O)Oc2cccc(Cl)c2Cl)cn1	-31.7	0.231 µM [falling, full curve, poor fit]	
CCCCN(Cc1ccccc1)S(=O)(=O)c1ccc2[nH]c(=O)oc2c1	-44.7		7.31 µM [falling, partial curve, poor fit]
Cc1cccc(NC(=O)c2ccccc2OCC(=O)c2ccccc2)c1	38.9	2.59 µM [rising, partial curve]	5.17 µM [rising, partial curve]

Rewritten bar-delimited: part of the list above
SMILES | cell number change [%] | AC50 [1] | AC50 [2]
Cc1cccc(NC(=O)CSc2nnc([C@@H]3CCCN3C(=O)OC(C)(C)C)o2)c1C | 1.14 |  | 1.46 µM [rising, partial curve, poor fit]
O=C(COc1ccc(S(=O)(=O)N2CCCC2)cc1)N1CCN(c2ccccc2F)CC1 |  |  | 29.1 µM [falling, single point]
Cc1cccc(-c2nnc3sc(-c4ccccc4)nn23)c1 | -3.42 |  | 

Remaining list, next part.

SMILES	cell number change [%]	AC50 [1]	AC50 [2]
COc1ccc(OCCCC(=O)Nc2cccc(S(=O)(=O)N3CCCCCC3)c2)cc1	-21.7	0.651 µM [falling, full curve, poor fit]	
Cc1noc(C)c1COc1cccc(C(=O)Nc2ccccc2N2CCOCC2)c1	8.91		3.26 µM [rising, single point]
CCOc1ccc(N(C)S(=O)(=O)c2cc(-c3cc(C)no3)ccc2OC)cc1	-31.8	16.4 µM [falling, partial curve, poor fit]	6.51 µM [falling, partial curve]
CN(C)C1=NC[C@H](Cc2ccccc2)N1CC1CCC(C(C)(C)C)CC1 (stereo partly specified)	-8.68		29.1 µM [falling, single point]
CNC(C)C(=O)NC(C(=O)N1CCCC1C(=O)Nc1ccc2ncccc2c1)C(C)C (stereo unspecified)	16	3.66 µM [falling, single point]	0.082 µM [rising, full curve]
Nc1nonc1-n1nnc(C(=O)N/N=C/c2c[nH]c3ccccc23)c1-c1ccccc1	16.8		18.4 µM [rising, single point]
CC(Sc1nnnn1-c1ccccc1)C(=O)Nc1ccc(Cl)cn1 (stereo unspecified)			5.17 µM [falling, partial curve]
NC(=O)Cc1ccc(C(=O)c2ccccc2F)s1	3.62	3.26 µM [falling, partial curve]	2.59 µM [falling, partial curve]
CC1CCCCC1NC(=O)Cn1[nH]c(=O)c2ccccc2c1=O (stereo unspecified)	-10.3		
COc1ccc(S(=O)(=O)N(Cc2ccccc2)c2ccccc2C(=O)N2CCOCC2)cc1	-8.56		29.1 µM [rising, partial curve, poor fit]
Cc1ccc(NC(=O)[C@H](C)NC(=O)C2CCN(C(=O)[C@@H](NC(=O)OC(C)(C)C)C(C)C)CC2)cc1	0.826		2.06 µM [rising, partial curve]
COC12NC(=O)N(C)C1(OC)C(=O)N(C)C(=O)N2C (stereo unspecified)	-24.4	0.103 µM [falling, full curve, poor fit]	0.013 µM [falling, full curve, poor fit]
Cc1ccc(C(NC(=O)N2CCCC2)C(Cl)(Cl)Cl)cc1F (stereo unspecified)			29.1 µM [rising, single point]
NC(=O)c1cc2ccccc2oc1=NCc1ccccc1			3.66 µM [rising, single point]
COc1ccc(CCC(=O)NCC23CC4CC(CC(C4)C2)C3)cc1	-31.9	32.6 µM [falling, single point]	6.51 µM [falling, single point]
C=CCOc1ccc(/C=C/C(=O)OCC(=O)N2CCCc3ccccc32)cc1	56.2	6.51 µM [rising, full curve]	
Cc1ccc(SCC(=O)Nc2ccccc2C(=O)O)cc1	-0.54		
COCc1c(C(=O)N2CCN(S(=O)(=O)c3ccccc3Cl)CC2)oc2ccccc12	8.41		4.11 µM [rising, partial curve, poor fit]
